# Assay results published in the supplement of paper PMC3334620.
# In all, about 33,000 sequences were measured (“E-score (-0.5 to 0.5)”: median about -0.0034, highest 2% from about 0.25 on). Some of the results follow.
# Target: T1, Yap3 (UniProt P38749)
# T1 sequence: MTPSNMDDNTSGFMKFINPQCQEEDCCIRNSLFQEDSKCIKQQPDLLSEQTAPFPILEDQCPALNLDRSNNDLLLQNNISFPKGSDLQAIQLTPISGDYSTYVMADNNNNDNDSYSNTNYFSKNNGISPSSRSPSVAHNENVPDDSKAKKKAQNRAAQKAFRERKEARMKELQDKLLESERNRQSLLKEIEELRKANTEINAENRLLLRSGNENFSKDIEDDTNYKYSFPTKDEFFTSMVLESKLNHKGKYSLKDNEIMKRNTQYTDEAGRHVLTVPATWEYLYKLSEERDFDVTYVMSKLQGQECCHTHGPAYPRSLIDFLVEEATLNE
# Assay: PBM E-score (8-mer binding enrichment) (E-score (-0.5 to 0.5)); higher = stronger / more preferred TF binding
# Settings: protein concentration: 100 nM; construct: GST-full length
# Method: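 Universal 'all 10-mer' protein binding microarrays (Agilent AMADID 015681) probed with GST-tagged S. cerevisiae TFs (full-length or DBD) made by in vitro transcription/translation (PURExpress), about 100-200 nM. Bound TF was detected with fluorescent anti-GST. Each ungapped 8-mer (which stands for itself and its reverse complement) is scored by the PBM enrichment score (E-score), a modified Wilcoxon-Mann-Whitney statistic from -0.5 to +0.5, computed with the Universal PBM Analysis Suite. Scale: above 0.35 generally sequence-specific binding.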
row,Sequence,PBM E-score
1,AATTCAAA,0.137
2,ACCAAGGG,0.0222
3,GGGTGTAA,0.0726
4,CAGCTCGG,-0.179
5,ACACGAAT,0.203
6,GTATCGGA,0.0886
7,ATTCCGCG,0.15
8,ACTACCGA,-0.229
9,CTGCCTGA,0.11
10,AATATGAA,0.279
11,AAGCCAGA,-0.0577
12,AACCTAAT,-0.00022
13,GAGTCCGC,-0.357
14,TAGATGGA,-0.0565
15,CACGGAAA,0.0661
16,ATCACAAT,0.192
17,TCCACGCA,-0.0448
18,ACGTGACG,0.179
19,CTAGCAAC,0.0522
20,GGACGCAC,0.00629
21,GTAGAATA,0.243
22,AGCTCCAC,-0.143
23,AAATAAGG,0.143
24,GGTATAAC,0.0646
25,ACGCCTCA,-0.123

# As a short view, part of the list above.
row,Sequence,PBM E-score
12,AACCTAAT,-0.00022
13,GAGTCCGC,-0.357
14,TAGATGGA,-0.0565
15,CACGGAAA,0.0661
16,ATCACAAT,0.192
17,TCCACGCA,-0.0448
18,ACGTGACG,0.179

# Following part:

row,Sequence,PBM E-score
1,ATCGGCGC,0.00776
2,GCATTAAC,0.0405
3,AGGAAGAC,-0.135
4,ACACGATG,-0.00607
5,AAGACGCA,0.0353
6,GTTACTTA,0.192
7,AGTTTTAG,0.109
8,GCGCCCGA,-0.143
9,TAGCGACA,0.0502
10,CACCAGAG,-0.215
11,ACAACTAA,0.245
12,GCAAGTCA,-0.0314
13,ACTGACAA,0.164
14,GGACATGA,-0.0945
15,ATCCTAAA,-0.101
16,ACCTAATA,0.274
17,TCATCGGA,0.0415
18,TCGGGGCA,-0.0416
19,ACATTTTC,0.125
20,GACCTCCC,-0.384
21,ATCGTCAC,0.0787
22,TAGGATAA,0.135
23,CGCTAACC,-0.135
24,GTGCTTAA,0.119
25,CCAGAAGG,-0.27

row,Sequence,PBM E-score
1,AGGACTCA,-0.196
2,AACCTGAC,0.108
3,AGACCTCA,-0.141
4,AGCTGAAA,-0.101
5,ATGGCTCA,-0.0722
6,AATGTCCT,-0.0241
7,ACCTGCGG,-0.221
8,CGCATGCC,0.168
9,CACGATCA,0.0222
10,AGGTACTC,-0.0481
11,GAGGGATC,-0.253
12,ACTCGTGC,-0.0487
13,GAAGTTTA,0.0974
14,AGTCGGCG,-0.00585
15,TAAGCAGA,-0.0647
16,CCAACGCA,-0.0355
17,CCCAACGA,-0.0115
18,ACCTTAGT,-0.156
19,GACGACTC,-0.183
20,AGCTATAC,0.0166
21,ACCGATGG,-0.119
22,GAAGTTGC,-0.244
23,CGACATAA,0.189
24,CTCGCAGC,-0.0243
25,AGATGCTC,0.0399

row,Sequence,PBM E-score
1,CAGTGGCG,-0.151
2,GTAGGCCA,-0.059
3,CGTCCCAG,-0.169
4,ACGTGTTG,0.0914
5,GACTGAGA,-0.0787
6,CTACTCCA,0.0135
7,ACTCGCCT,-0.00195
8,CATGGTGA,-0.0461
9,GCGTCCCC,-0.254
10,CGCTCGAG,0.0723
11,AGGGTGGC,-0.105
12,CCCTAGTA,-0.0846
13,CTCCACGC,-0.0805
14,ACCGACCT,-0.0186
15,GAAGACTA,0.0141
16,GATGGCCC,-0.242
17,GATAACAA,0.0894
18,ACTAACGG,0.0217
19,ATGGCGTA,0.0354
20,GCTACTTA,0.00558
21,ACCGGACC,-0.145
22,CCAATGTC,-0.0611
23,CATGTGAA,-0.0348
24,CCCAGGGC,-0.355
25,GGTCAAAA,0.125

# Single values from the list:
# PBM E-score with CTCCACGC reads -0.0805
# PBM E-score with ACCGGACC reads -0.145
# PBM E-score with CGTCCCAG reads -0.169
# PBM E-score with CCAATGTC reads -0.0611
# PBM E-score with CCCAGGGC reads -0.355

# Following part

row,Sequence,PBM E-score
1,CATGGCTC,0.00976
2,AGCTGGAC,-0.119
3,AAAACTAC,0.196
4,GACTCTGC,-0.159
5,GGAATGTA,0.0901
6,CTACCTAA,0.126
7,AACAGGAT,0.00444
8,AAAAGGAA,0.0678
9,GGGCCAAC,-0.0814
10,CTTTGGCA,-0.152
11,AACAGCGA,-0.166
12,ATGAACAA,0.16
13,AATAGGCA,0.0693
14,GAGGCTAC,-0.299
15,CGAGTTTC,0.131
16,ACGGCGTG,0.13
17,AGTGGTTG,0.124
18,GAAGGACC,-0.254
19,GAATAGCC,-0.167
20,ACCTTACC,0.182
21,CCGCTAGC,-0.0972
22,TAGCAACA,0.114
23,GGACGCGA,-0.0224
24,AGCTGTAT,0.0268
25,AAGCACCA,-0.178

row,Sequence,PBM E-score
1,AATGCCCG,-0.117
2,ACCAATAG,-0.0827
3,CCTCTGCC,-0.306
4,CTCTCCTA,-0.0948
5,AACATACG,0.183
6,ATTTGCCG,0.0329
7,CGAATGTC,0.0563
8,AGTGCTTG,-0.0485
9,TCCATGCA,0.0556
10,CACTCCGA,-0.19
11,ACTCTACA,-0.12
12,AGCACGCT,-0.221
13,ACTGTAGG,0.137
14,ACGAAGGA,0.0261
15,CTTAGTAA,0.429
16,GTTATGGA,0.215
17,TCTTAAAA,0.163
18,AAAGGTCG,-0.0514
19,TCATTAAA,0.258
20,CTTACGTC,0.0927
21,GATCATCA,-0.0385
22,AGGCGACC,-0.238
23,GCCAGCCC,-0.336
24,CCATGGAC,-0.0155
25,CCGTAAAC,0.089

row,Sequence,PBM E-score
1,ACAGAAGT,0.00792
2,ATCGATCA,0.194
3,TCACCTGA,-0.17
4,CGAGCCTC,-0.184
5,CCGCAGGA,-0.196
6,ATCGCGCG,0.155
7,ACCGAAGC,-0.17
8,ACGAAGGC,-0.134
9,ACGCCTCT,-0.0246
10,CGCCGATA,0.00531
11,ACATTAGG,-0.0248
12,GGCCTGAC,-0.145
13,ACTGGAAA,0.126
14,CACTGGAA,-0.0182
15,ATTCTTTC,0.142
16,GAGCGAGA,0.134
17,AAGCTCGT,-0.0104
18,GACAAGCA,-0.14
19,GCTGTACA,-0.136
20,AATTTGCG,0.0563
21,GAACATTC,0.0524
22,ATGTGGGA,0.0951
23,CTTGACAA,0.119
24,GAGGCGAA,0.137
25,CGAGGGTC,-0.351

row,Sequence,PBM E-score
1,GCGGGCCA,-0.166
2,ATGGCCAA,-0.114
3,GTGTAATA,0.214
4,TACATTAA,0.199
5,AGATTTAG,0.0205
6,CTCTTGTC,0.0437
7,ACATGGTA,0.127
8,AATTATCC,0.133
9,CCACCGAA,-0.0425
10,ATTCATGA,0.0399
11,ATCAAAGG,0.097
12,ATGAGACC,0.00419
13,CAAGGGCA,-0.2
14,ACGCCATC,-0.044
15,CTATGACA,0.165
16,GCAGGAAC,-0.0758
17,CATGCCGG,0.0101
18,ATACATGC,0.0109
19,CGCGTTCA,0.174
20,GTACAACA,0.221
21,GTACACAA,0.198
22,AACAGAAA,0.157
23,ACGATGGC,0.0417
24,CGTCTTGA,0.0708
25,TGTGTTAA,0.196

row,Sequence,PBM E-score
1,ACCCGAGG,-0.105
2,AGCGAGGG,-0.171
3,CGAAAGAA,0.143
4,AGTGCGAC,-0.113
5,TACTGGGA,0.108
6,CTCGTTGC,0.0493
7,CCATTATA,0.082
8,ATGGTTTA,0.0249
9,GCTCTTTA,0.0383
10,ACATTTAT,0.179
11,ATGACGAG,0.00121
12,ATAAATGG,0.195
13,CGGGATTA,0.0953
14,ACGGACTC,-0.175
15,GCAACCCC,-0.288
16,ACTGAGAA,0.059
17,CACCTTAG,-0.0796
18,ATCGTCAA,-0.00648
19,ATCGTTGA,-0.0043
